Experiment [1] has as its target β-galactosidase (β-gal, Sigma) (E. coli) [β-galactosidase: P00722]. Briefly: ELISA of soluble cell lysate on β-gal-coated plates, anti-FLAG detection. (In general: In an ELISA, binding on a coated surface is turned into a signal by an enzyme label.)
For experiment [2] the target is unchanged. Put plainly: panning of ARM complexes on immobilized β-gal, RT-PCR of the eluted mRNA.
Experiment [3] has the same target. Put plainly: ELISA of 70S ribosome fractions on β-gal-coated plates; mRNA recovered after panning on immobilized β-gal.
Experiment [4] shares this target. Briefly: ELISA of 70S ribosome fractions on β-gal-coated plates.

Results are given in words; binding and its absence hold for the method and conditions named. Some results given as binding are weak or reduced against the parent protein; the word gives no strength. Sequences can lack the tags named with a protein.

B1: wt scFv13 (human anti-β-gal single-chain variable fragment, unfused) (scFv)
scFv: MADYKDDDDKGGSAEVQLVESGGGLVKPGGSLRLSCAASGFTFSNYSMNWVRQAPGKGLEWVSSISSSSSYIYYADFVKGRFTISRDNAKNSLYLQMNSLRAEDTAVYYCARSSITIFGGGMDVWGRGTLVTVSSGGGGSGGGGSGGGGSQSVLTQPASVSGSPGQSITISCAGTSSDVGGYNYVSWYQQHPGKAPKLMIYEGSKRPSGVSNRFSGSKSGNTASLTISGLQAEDEADYYCSSYTTRSTRVFGGGTKLAVLGAAAEQKLISEEDLNGAAELHHHHHH
On to B1, for which, in experiment [1], the binding result was “binds”.

B2: scFv13-SecM17 fusion (wt scFv13 fused to the 17-residue SecM stall sequence) (scFv, not shown: small tags and cut ends)
scFv (part 1 of 2): B1 scFv
scFv (part 2 of 2): AGSAAGSGFSTPVWISQAQGIRAGP
For the molecule B2, the binding entry in experiment [2], in experiment [3], in experiment [4] and in experiment [1] was “binds” in each case.

The values above are taken from patent publication US20110008774A1.
